Data as given in PubChem BioAssay AID1259425 (University of Nebraska Medical Center, 2018).
Here is one part, drawn at random, of about 14,000 reagents. No sequences are given here. The record does not give: the time to read-out.

- Purpose: 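Compare each knockdown with KSR1 silencing using changes in marker transcripts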 (primary screen)
- Cells: HCT116 human colon cancer cells
- Reagent: siRNA pool against human genes, 50 nM siRNA
- Detection: 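After 50 nM siRNA pool, branched-DNA assay measures six marker transcripts per well, minus blank, normalised to the geometric mean of two housekeeping transcripts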
- Scale: BNIP3L mRNA: higher = more BNIP3L transcript after knockdown; NDRG1 mRNA: higher = more NDRG1 transcript after knockdown; BNIP3 mRNA: higher = more BNIP3 transcript after knockdown; ALDOC mRNA: higher = more ALDOC transcript after knockdown; ACSL5 mRNA: higher = more ACSL5 transcript after knockdown

gene symbol,"BNIP3L mRNA, set 1","NDRG1 mRNA, set 1","BNIP3 mRNA, set 1","ALDOC mRNA, set 1","ACSL5 mRNA, set 1"
TNFRSF8,0.14,0.107,0.487,0.0122,0.433
BRF2,0.0819,0.133,0.271,0.00706,0.227
ZNF384,0.0792,0.182,0.377,0.0169,0.305
RALA,0.0591,0.0698,0.22,0.0144,0.161
SLC39A14,0.0818,0.164,0.268,0.0142,0.175
GAGE1,0.123,0.314,0.327,0.0163,0.172
WNT7A,0.136,0.197,0.301,0.029,0.286
DMXL2,0.0547,0.141,0.332,0.0104,0.0667

2 entries from above, reduced to “ACSL5 mRNA, set 1”.
BRF2: 0.227
ZNF384: 0.305

Continued:
gene symbol,"BNIP3L mRNA, set 1","NDRG1 mRNA, set 1","BNIP3 mRNA, set 1","ALDOC mRNA, set 1","ACSL5 mRNA, set 1"
AFAP1,0.153,0.14,0.386,0.0395,0.148
RAD54L2,0.0801,0.0968,0.242,0.0266,0.0868
CSNK1G1,0.0719,0.175,0.15,0.015,0.179
TPSD1,0.142,0.302,0.277,0.0204,0.14
TBC1D10A,0.266,0.456,0.313,0.0794,0.383
INPP5E,0.211,0.283,0.375,0.05,0.174
FN1,0.113,0.181,0.288,0.0234,0.26
DIAPH3,0.0597,0.0722,0.308,0.0254,0.139
TBKBP1,0.0803,0.527,0.264,0.0408,0.127
PPIL2,0.129,1.34,0.741,0.0724,0.231
EMSY,0.159,0.279,0.314,0.0584,0.277
RAPGEFL1,0.0965,0.0869,0.22,0.019,0.0725
